Laboratory results published in article PMC1971115.
No constants are given. Whether binding was seen depends on the method and setting. In cells and extracts the contact can be indirect. Binding calls can cover weak binding; strength is not graded here.

B1: apolipoprotein L-1 (protein, UniProt O14791 28-398)
chain: EEAGARVQQNVPSGTDTGDPQSKPLGDWAAGTMDPESSIFIEDAIKYFKEKVSTQNLLLLLTDNEAWNGFVAAAELPRNEADELRKALDNLARQMIMKDKNWHDKGQQYRNWFLKEFPRLKSELEDNIRRLRALADGVQKVHKGTTIANVVSGSLSISSGILTLVGMGLAPFTEGGSLVLLEPGMELGITAALTGITSSTMDYGKKWWTQAQAHDLVIKSLDKLKEVREFLGENISNFLSLAGNTYQLTRGIGKDIRALRRARANLQSVPHASASRPRVTEPISAESGEQVERVNEPSILEMSRGVKLTDVAPVSFFLVLDVVYLVYESKHLHEGAKSETAEELKKVAQELEEKLNILNNNYKILQADQEL

Tests used:
[1] = molecular target: T1, apolipoprotein L-1 (human (endogenous in plasma)) (UniProt O14791); experiment: co-IP; one-step immunoaffinity chromatography from fresh human plasma; anti-Hpr, anti-ApoL-1 (monoclonal) or anti-ApoA-1 (polyclonal) coupled to Affigel 15, 30 min at 4 °C, washed seven times with PBSE, eluted with 100 mM glycine pH 2.0; non-reducing SDS-PAGE, western blot and LC-MS/MS
T1 sequence: B1 chain

[2] = molecular target: haptoglobin-related protein (human (endogenous in plasma)); experiment: co-IP; two-step purification from human plasma: high-salt density centrifugation, then antibody affinity chromatography with anti-Hpr; non-reducing 10% SDS-PAGE, Coomassie
[3] = molecular target: haptoglobin-related protein (human (endogenous in plasma)); experiment: co-IP; one-step immunoaffinity chromatography from fresh human plasma; anti-Hpr, anti-ApoL-1 (monoclonal) or anti-ApoA-1 (polyclonal) coupled to Affigel 15, 30 min at 4 °C, washed seven times with PBSE, eluted with 100 mM glycine pH 2.0; non-reducing SDS-PAGE, western blot and LC-MS/MS

binding [1]	binding [2]	binding [3]	Molecule
binds weakly	–	–	haptoglobin (human (endogenous in plasma))
binds	–	–	haptoglobin-related protein (human (endogenous in plasma))
–	binds	binds	B1
